Values joined by “and” are separate entries in the source; they are usually repeats but may differ in a detail not shown here. Equal entries are not always repeated. The source gives many values for each of these; only a part stands here.
Columns and labels:
[1] = test system: MCF7-CDK4^D99N (CL1) cells; assay: IncuCyte confluency growth, homozygous CDK4 D99N clone CL1; type: cell-based, human
Procedure: (§1) To determine the IC50 of drug treatments on growth, cells were seeded in 96-well culture plates. Two days after seeding, the cells were treated with increasing concentrations of drugs and incubated for 4 days. Cell number was determined using the SRB assay (Skehan et al, [1990]), and IC50 values were calculated using non-linear regression curve fitting in GraphPad Prism v10. For all other growth experiments, cells were seeded into 96-well plates, and appropriate drugs were added 2 days after seeding. Cells were then incubated in an IncuCyte Zoom live-cell imager, with cell confluency measured every 6 h. Cell doubling times were determined by non-linear curve fitting (exponential growth equation) in GraphPad Prism v10.

[2] = test system: MCF7 cells; assay: IncuCyte confluency growth, MCF7; type: cell-based, human
Procedure: as §1

CC(=O)c1c(C)c2cnc(Nc3ccc(N4CCNCC4)cn3)nc2n(C2CCCC2)c1=O [Palbociclib]
% Confluency ([1]; MCF7 CDK4 D99N/D99N CL1, 50nM Palbociclib, 120 Hours): 56.30% and 75.92% and 82.07% | % Confluency ([1]; MCF7 CDK4 D99N/D99N CL1, 50nM Palbociclib, 132 Hours): 68.72% and 87.36% and 92.94% | % Confluency ([1]; MCF7 CDK4 D99N/D99N CL1, 50nM Palbociclib, 144 Hours): 80.22% and 91.82% and 97.58% | % Confluency ([1]; MCF7 CDK4 D99N/D99N CL1, 50nM Palbociclib, 156 Hours): 90.24% and 95.10% and 99.34% | % Confluency ([1]; MCF7 CDK4 D99N/D99N CL1, 50nM Palbociclib, 168 Hours): 95.38% and 98.19% and 99.46% | % Confluency ([1]; MCF7 CDK4 D99N/D99N CL1, 50nM Palbociclib, 180 Hours): 98.50% and 99.17% and 99.89% | % Confluency ([1]; MCF7 CDK4 D99N/D99N CL1, 50nM Palbociclib, 192 Hours): 99.47% and 99.71% and 99.97% | % Confluency ([1]; MCF7 CDK4 D99N/D99N CL1, 50nM Palbociclib, 204 Hours): 99.43% and 99.93% and 99.98% | % Confluency ([1]; MCF7 CDK4 D99N/D99N CL1, 50nM Palbociclib, 216 Hours): 99.14% and 99.96% and 99.98% | % Confluency ([1]; MCF7 CDK4 D99N/D99N CL1, 50nM Palbociclib, 228 Hours): 99.10% and 99.94% and 99.96% | % Confluency ([1]; MCF7 CDK4 D99N/D99N CL1, 50nM Palbociclib, 240 Hours): 98.90% and 99.89% and 99.97% | % Confluency ([1]; MCF7 CDK4 D99N/D99N CL1, 50nM Palbociclib, 252 Hours): 98.78% and 99.85% and 99.95% | % Confluency ([1]; MCF7 CDK4 D99N/D99N CL1, 100nM Palbociclib, 120 Hours): 70.85% and 74.82% and 74.98% | % Confluency ([1]; MCF7 CDK4 D99N/D99N CL1, 100nM Palbociclib, 132 Hours): 80.29% and 85.81% and 87.39% | % Confluency ([1]; MCF7 CDK4 D99N/D99N CL1, 100nM Palbociclib, 144 Hours): 91.16% and 90.47% and 96.08% | % Confluency ([1]; MCF7 CDK4 D99N/D99N CL1, 100nM Palbociclib, 156 Hours): 97.93% and 94.16% and 98.43% | % Confluency ([1]; MCF7 CDK4 D99N/D99N CL1, 100nM Palbociclib, 168 Hours): 99.60% and 97.45% and 98.44% | % Confluency ([1]; MCF7 CDK4 D99N/D99N CL1, 100nM Palbociclib, 180 Hours): 99.73% and 99.84% and 99.14% | % Confluency ([1]; MCF7 CDK4 D99N/D99N CL1, 100nM Palbociclib, 192 Hours): 99.80% and 99.97% and 99.81% | % Confluency ([1]; MCF7 CDK4 D99N/D99N CL1, 100nM Palbociclib, 204 Hours): 99.84% and 99.98% and 99.94% | % Confluency ([1]; MCF7 CDK4 D99N/D99N CL1, 100nM Palbociclib, 216 Hours): 99.70% and 99.96% and 99.94% | % Confluency ([1]; MCF7 CDK4 D99N/D99N CL1, 100nM Palbociclib, 228 Hours): 99.59% and 99.90% and 99.91% | % Confluency ([1]; MCF7 CDK4 D99N/D99N CL1, 100nM Palbociclib, 240 Hours): 99.43% and 99.87% and 99.89% | % Confluency ([1]; MCF7 CDK4 D99N/D99N CL1, 100nM Palbociclib, 252 Hours): 99.47% and 99.88% and 99.89% | % Confluency ([1]; MCF7 CDK4 D99N/D99N CL1, 500nM Palbociclib, 120 Hours): 55.43% and 56.21% and 51.96% | % Confluency ([1]; MCF7 CDK4 D99N/D99N CL1, 500nM Palbociclib, 132 Hours): 60.37% and 67.49% and 61.66% | % Confluency ([1]; MCF7 CDK4 D99N/D99N CL1, 500nM Palbociclib, 144 Hours): 73.62% and 74.74% and 74.56% | % Confluency ([1]; MCF7 CDK4 D99N/D99N CL1, 500nM Palbociclib, 156 Hours): 87.81% and 83.58% and 82.83% | % Confluency ([1]; MCF7 CDK4 D99N/D99N CL1, 500nM Palbociclib, 168 Hours): 94.40% and 90.42% and 83.33% | % Confluency ([1]; MCF7 CDK4 D99N/D99N CL1, 500nM Palbociclib, 180 Hours): 97.13% and 92.69% and 86.11% | % Confluency ([1]; MCF7 CDK4 D99N/D99N CL1, 500nM Palbociclib, 192 Hours): 98.13% and 96.59% and 92.91% | % Confluency ([1]; MCF7 CDK4 D99N/D99N CL1, 500nM Palbociclib, 204 Hours): 98.39% and 98.64% and 96.44% | % Confluency ([1]; MCF7 CDK4 D99N/D99N CL1, 500nM Palbociclib, 216 Hours): 98.42% and 99.24% and 97.64% | % Confluency ([1]; MCF7 CDK4 D99N/D99N CL1, 500nM Palbociclib, 228 Hours): 98.46% and 99.52% and 98.27% | % Confluency ([1]; MCF7 CDK4 D99N/D99N CL1, 500nM Palbociclib, 240 Hours): 98.59% and 99.53% and 98.58% | % Confluency ([1]; MCF7 CDK4 D99N/D99N CL1, 500nM Palbociclib, 252 Hours): 98.52% and 99.49% and 98.57% | % Confluency ([1]; MCF7 CDK4 D99N/D99N CL1, 1000nM Palbociclib, 120 Hours): 52.22% and 37.71% and 44.80% | % Confluency ([1]; MCF7 CDK4 D99N/D99N CL1, 1000nM Palbociclib, 132 Hours): 55.86% and 45.15% and 52.18% | % Confluency ([1]; MCF7 CDK4 D99N/D99N CL1, 1000nM Palbociclib, 144 Hours): 66.80% and 49.10% and 62.38% | % Confluency ([1]; MCF7 CDK4 D99N/D99N CL1, 1000nM Palbociclib, 156 Hours): 83.61% and 56.08% and 71.30% | % Confluency ([1]; MCF7 CDK4 D99N/D99N CL1, 1000nM Palbociclib, 168 Hours): 91.93% and 62.67% and 70.23% | % Confluency ([1]; MCF7 CDK4 D99N/D99N CL1, 1000nM Palbociclib, 180 Hours): 93.22% and 66.75% and 74.34% | % Confluency ([1]; MCF7 CDK4 D99N/D99N CL1, 1000nM Palbociclib, 192 Hours): 95.39% and 74.95% and 82.77% | % Confluency ([1]; MCF7 CDK4 D99N/D99N CL1, 1000nM Palbociclib, 204 Hours): 98.19% and 81.30% and 88.83% | % Confluency ([1]; MCF7 CDK4 D99N/D99N CL1, 1000nM Palbociclib, 216 Hours): 98.08% and 85.95% and 91.40% | % Confluency ([1]; MCF7 CDK4 D99N/D99N CL1, 1000nM Palbociclib, 228 Hours): 97.68% and 88.59% and 93.46% | % Confluency ([1]; MCF7 CDK4 D99N/D99N CL1, 1000nM Palbociclib, 240 Hours): 97.58% and 90.52% and 94.49% | % Confluency ([1]; MCF7 CDK4 D99N/D99N CL1, 1000nM Palbociclib, 252 Hours): 97.57% and 91.68% and 95.14% | % Conluency ([2]; MCF7, 50nM Palbociclib, 0 Hours): 5.81% and 4.92% and 9.85% | % Conluency ([2]; MCF7, 50nM Palbociclib, 12 Hours): 9.07% and 7.97% and 15.01% | % Conluency ([2]; MCF7, 50nM Palbociclib, 24 Hours): 12.88% and 11.08% and 21.58% | % Conluency ([2]; MCF7, 50nM Palbociclib, 36 Hours): 16.26% and 13.95% and 25.45% | % Conluency ([2]; MCF7, 50nM Palbociclib, 156 Hours): 98.19% and 83.49% and 99.44% | % Conluency ([2]; MCF7, 50nM Palbociclib, 168 Hours): 99.47% and 89.55% and 99.79% | % Conluency ([2]; MCF7, 50nM Palbociclib, 180 Hours): 99.91% and 94.98% and 99.50% | % Conluency ([2]; MCF7, 50nM Palbociclib, 192 Hours): 99.88% and 97.80% and 99.95% | % Conluency ([2]; MCF7, 50nM Palbociclib, 204 Hours): 99.82% and 98.81% and 99.97% | % Conluency ([2]; MCF7, 50nM Palbociclib, 216 Hours): 99.72% and 99.43% and 99.88% | % Conluency ([2]; MCF7, 50nM Palbociclib, 228 Hours): 99.65% and 99.54% and 99.53% | % Conluency ([2]; MCF7, 50nM Palbociclib, 240 Hours): 99.60% and 99.14% | % Conluency ([2]; MCF7, 50nM Palbociclib, 252 Hours): 99.58% and 99.64% and 99.20% | % Conluency ([2]; MCF7, 100nM Palbociclib, 0 Hours): 5.96% and 5.11% and 9.12% | % Conluency ([2]; MCF7, 100nM Palbociclib, 12 Hours): 9.38% and 8.10% and 14.16% | % Conluency ([2]; MCF7, 100nM Palbociclib, 24 Hours): 13.50% and 11.31% and 20.17% | % Conluency ([2]; MCF7, 100nM Palbociclib, 36 Hours): 16.63% and 13.71% and 23.01% | % Conluency ([2]; MCF7, 100nM Palbociclib, 144 Hours): 64.71% and 92.44% | % Conluency ([2]; MCF7, 100nM Palbociclib, 156 Hours): 95.54% and 70.80% and 96.02% | % Conluency ([2]; MCF7, 100nM Palbociclib, 168 Hours): 98.36% and 76.85% and 98.13% | % Conluency ([2]; MCF7, 100nM Palbociclib, 180 Hours): 99.12% and 83.92% and 96.98% | % Conluency ([2]; MCF7, 100nM Palbociclib, 192 Hours): 99.58% and 88.48% and 99.16% | % Conluency ([2]; MCF7, 100nM Palbociclib, 204 Hours): 99.68% and 90.68% and 99.79% | % Conluency ([2]; MCF7, 100nM Palbociclib, 216 Hours): 99.43% and 92.90% and 99.75% | % Conluency ([2]; MCF7, 100nM Palbociclib, 228 Hours): 99.23% and 94.71% and 99.36%
